Values from PubChem BioAssay AID1259425 (University of Nebraska Medical Center, 2018).
Shown is one part, drawn at random, of about 14,000 reagents tested. Further read-outs or replicates are left out here. Reagent sequences are not shown. Not given: the time to read-out.

Screen: 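Seek colon cancer weak points whose silencing resembles KSR1 loss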 (primary screen)
Cells: HCT116 human colon cancer cells
Reagents: siRNA pool against human genes, 50 nM siRNA
Detection: 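mRNA of six signature genes measured together by branched-DNA assay after 50 nM siRNA pool, blank removed, divided by geometric mean of two housekeeping genes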
Reading the numbers: BNIP3L mRNA: higher = more BNIP3L transcript after knockdown

| target | BNIP3L mRNA, set 1 |
| --- | --- |
| DBN1 (GeneID 1627) | 0.113 |
| ACKR5 (GeneID 11318) | 0.282 |
| ZNF580 (GeneID 51157) | 0.143 |
| HERC5 (GeneID 51191) | 0.0635 |
| NACA4P (GeneID 83955) | 0.126 |
| TERF2 (GeneID 7014) | 0.106 |
| ZNF416 (GeneID 55659) | 0.138 |
| TRIM62 (GeneID 55223) | 0.115 |
| HRG (GeneID 3273) | 0.147 |
| OR8B8 (GeneID 26493) | 0.308 |
| KDM5D (GeneID 8284) | 0.0823 |
| RPP14 (GeneID 11102) | 0.0729 |
| FEZ1 (GeneID 9638) | 0.0902 |
| COQ6 (GeneID 51004) | 0.116 |
| NPIPA1 (GeneID 9284) | 0.115 |
| DOC2A (GeneID 8448) | 0.166 |
| UTP14A (GeneID 10813) | 0.0531 |
| MEST (GeneID 4232) | 0.0985 |
| FABP5 (GeneID 2171) | 0.0785 |
| SCLY (GeneID 51540) | 0.137 |
| HGS (GeneID 9146) | 0.141 |
| GRB2 (GeneID 2885) | 0.0655 |
| BMX (GeneID 660) | 0.201 |

Copied from the entries so far for reference:
| target | BNIP3L mRNA, set 1 |
| --- | --- |
| ACKR5 (GeneID 11318) | 0.282 |
| ZNF580 (GeneID 51157) | 0.143 |
| HERC5 (GeneID 51191) | 0.0635 |
| NACA4P (GeneID 83955) | 0.126 |

Continued:
| target | BNIP3L mRNA, set 1 |
| --- | --- |
| GGA3 (GeneID 23163) | 0.0824 |
| PSME4 (GeneID 23198) | 0.0801 |
| LDLRAD4 (GeneID 753) | 0.0739 |
| GOLM1 (GeneID 51280) | 1.09 |
| MRPL58 (GeneID 3396) | 0.0477 |
| TMEM176B (GeneID 28959) | 0.161 |
| PLEKHG4 (GeneID 25894) | 0.232 |
| STK11 (GeneID 6794) | 0.0953 |
| EEF1A2 (GeneID 1917) | 0.115 |
| NHERF1 (GeneID 9368) | 0.261 |
| C1orf21 (GeneID 81563) | 0.129 |
| EXOSC10 (GeneID 5394) | 0.064 |
| ITGA2B (GeneID 3674) | 0.111 |
| PDIA5 (GeneID 10954) | 0.0872 |
| LRRN3 (GeneID 54674) | 0.0693 |
| CX3CL1 (GeneID 6376) | 0.0616 |
| DENND5A (GeneID 23258) | 0.205 |
| ANKIB1 (GeneID 54467) | 0.132 |
| C8orf33 (GeneID 65265) | 2.39 |
| USP4 (GeneID 7375) | 0.0488 |
| MARK2 (GeneID 2011) | 0.102 |
| RGS9 (GeneID 8787) | 0.105 |
| COL2A1 (GeneID 1280) | 0.293 |
| HPS1 (GeneID 3257) | 0.0629 |
| PRKAB2 (GeneID 5565) | 0.147 |
| B4GAT1 (GeneID 11041) | 0.0826 |
| RIOK2 (GeneID 55781) | 0.15 |
| ENPP3 (GeneID 5169) | 0.0728 |
| LGALS2 (GeneID 3957) | 0.25 |
| YIPF3 (GeneID 25844) | 0.08 |
| PTCD1 (GeneID 26024) | 0.114 |
| VRK3 (GeneID 51231) | 0.0716 |
| CASP8AP2 (GeneID 9994) | 0.129 |
| AP3S2 (GeneID 10239) | 0.128 |
| COL1A1 (GeneID 1277) | 0.0681 |
| OFD1 (GeneID 8481) | 0.204 |
| POGLUT1 (GeneID 56983) | 0.264 |
| ARID3A (GeneID 1820) | 0.214 |
| RAD51D (GeneID 5892) | 0.14 |
| NOLC1 (GeneID 9221) | 0.165 |
